Source: PubChem BioAssay AID1347423 (Functional Genomics Laboratory (NCATS/FGL), 2020)
The whole screen tested about 52,000 sequences, of which about 210 (0.4%) were called active.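 The calls were made as follows: active = gene whose silencing raises cell survival under the drug, median off-target-corrected z-score across its silencing RNAs 2 or more; inactive = the rest.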 The list shows a part of the results.

Assay: Resistance to Poly (ADP-Ribose) Polymerase inhibitor: Gene Identification via Genome-wide siRNA Screen
Settings: mouse BRCA2 R2336H ES cells, olaparib, CellTiter-Glo viability; active compounds read high
Method in brief: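 Mouse BRCA2 R2336H ES cells were reverse-transfected with siRNA (20 nM final), treated at 48 h with 500 nM olaparib, and read by CellTiter-Glo after 72 h. Scores: MAD-based z per siRNA, median per gene, seed off-target correction.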

Row | Sequence | z-score
1 | CCUGAUCGACUUCAACUUGTT against BC037095 | inactive: -0.154
2 | GGUAUUCACUGCUUCAUCUTT against Ubap2 | inactive: -0.0302
3 | GGAACCUACUUGUUACCUUTT against Nalp5 | inactive: -1.15
4 | GUUUUGGAUUCCUCUGUCATT against Olfr1097 | inactive: -0.553
5 | GGCUCAAUCCAAGUCUUCATT against Olfr173 | inactive: -0.0243
6 | CCAGGGUAAAAUAAACGAATT against Ostf1 | inactive: -0.0269
7 | CCAUUACUCAUCGAGAGUGTT against 2610300B10Rik | inactive: -2.09
8 | GGUCACACAGACAUUGACATT against Tnn | inactive: 0.598
9 | GGCAGACAUAAGGCUUUCUTT against Olfr1056 | inactive: -0.871
10 | GGUCAUGGGACAGCAAAUGTT against 2410015B03Rik | inactive: -0.82
11 | GGGCAUCUUCCAUCUUCAATT against 4931428L18Rik | inactive: -1.15
12 | CCUCAAUCAAAAUGUAAGUTT against Atp6v0a2 | inactive: 0.382
13 | GGACUCCAUACCACCAAUATT against 6430701C03Rik | inactive: 0.529
14 | CGGUACAUCAUUGCUGUCATT against Slc17a8 | inactive: -0.486
15 | GGUUGGUGAACUUGGAGGUTT against Hspa1a | inactive: 0.0897
16 | GCUUCUACUCCAUAUUACGTT against Rbm4 | inactive: -0.352
17 | GGACGAGAAGCAAACUAUGTT against Pi16 | inactive: -0.73
18 | GCAAAACAUGAGCUUAAACTT against 1810004F21Rik | inactive: 0.0562
19 | GCCCUCCUUAUAGCUUAAUTT against Accn3 | inactive: -0.137
20 | GGUUCACAGAUGAUACCUUTT against Rab18 | inactive: 0.00702
21 | GGCCAGAGAAAUCUUGGUATT against Ppp4c | inactive: -1.7
22 | GGAAACCUGGGCUUAGUCUTT against Olfr974 | inactive: -1.13
23 | GCUCACAAUGCUACAUCAATT against BC050210 | inactive: 2.63
24 | GCUUGAUAGACCAAAAGAUTT against 1600021C16Rik | inactive: -1.29
25 | GGGUAUGGAUAUGGAGGUGTT against 4732456N10Rik | inactive: -0.452
26 | GGAAGAAUGGAAGAAGAAATT against 5930406N14Rik | inactive: -0.125

Row | Sequence | z-score
27 | GCAUAAGCUACUGCUGACATT against Pcdha6 | inactive: 0.869
28 | GCUCCUUCCCGUUUCUAGATT against 4921511H03Rik | inactive: 0.403
29 | GGAGAAUGCUGAAACACCUTT against D13Bwg1146e | inactive: 1.92
30 | GCCUCCGUUUGAAAUAGAGTT against 6330408A02Rik | inactive: 1.63
31 | GUGUGUGGAGAAGCCAGGATT against Timm8b | inactive: -0.535
32 | GGGAUACCCGGCGUAAUCUTT against Col4a2 | inactive: -0.898
33 | GCAUCAGGCCCGUUCAGAATT against Ddx4 | inactive: -0.0301
34 | GCUGGUCGUCAUCAAAUGUTT against 5031410I06Rik | inactive: 3.56
35 | GGAGACAGCAUUCAUUUAUTT against Wnt16 | inactive: 0.447
36 | GGGAACCUCACCAUUAUCATT against Olfr769 | inactive: -0.997
37 | GGCAAAGCUCUAAACGGGUTT against Cnil | inactive: -0.696
38 | GGCAUCCUGAGAGAACUCATT against 6030419C18Rik | inactive: -1
39 | GGAGAUCGAUUUGGAAAACTT against Irx3 | inactive: 0.29
40 | GGCAACAUCAGAAUUGGAATT against Clcn2 | inactive: -0.232
41 | CCGGGUUCUUUGAAGUGACTT against Sepw1 | inactive: -1.56
42 | GGACCAGGUAUUCAUGAUCTT against Sema3c | inactive: 1.79
43 | GCAGACCAUAGAUAAUUGGTT against Casp14 | inactive: -0.402
44 | CCCUAAUCAGUUCACCAUCTT against Tgif2 | inactive: -0.757
45 | GGCCCAGGUGCUAUUCUUUTT against Slc12a3 | inactive: 1.66
46 | CCGCUACGACAAGGACAAGTT against Thap1 | inactive: -2.75
47 | GGUGCUGUUUGUAGACUCATT against Fkbp1a | inactive: -0.0138
48 | GGAUUAUAUGCCAAGUGAUTT against Phyh | inactive: -1.49
49 | GGUAUUUUUUACAGGACCATT against C78915 | inactive: 1.04
50 | GCAGAUCAAUGACUAUAGATT against Arhgef11 | inactive: 0.0578
51 | GGAAUACAGGAAAAUCAAATT against Ell | inactive: -0.513
52 | CCAUCCAUCAACAAAGCCATT against Pde4d | inactive: 1.02

Pulled one by one from above, 4 records:
Row | Sequence | z-score
21 | GGCCAGAGAAAUCUUGGUATT against Ppp4c | inactive: -1.7
11 | GGGCAUCUUCCAUCUUCAATT against 4931428L18Rik | inactive: -1.15
2 | GGUAUUCACUGCUUCAUCUTT against Ubap2 | inactive: -0.0302
39 | GGAGAUCGAUUUGGAAAACTT against Irx3 | inactive: 0.29

Next entries follow.

Row | Sequence | z-score
53 | GCUACAGCUUCAAUUAAAUTT against Birc6 | inactive: 0.0846
54 | CGACCACAUGAGGAUGCAUTT against Zbtb20 | inactive: 0.281
55 | GGAGUGGAAGAGAAAAUUUTT against Cts8 | inactive: -1.44
56 | GGUGUUCCAGGUGAGAAAATT against Rps6kb2 | inactive: -0.0706
57 | GGCACGAUUUGCUUAUUUUTT against Usf2 | inactive: 0.522
58 | GGAUAUGCCAGAGACACUGTT against Carf | inactive: -1.71
59 | CCUAUGCUGAAAUUCUUGATT against Ndufc2 | inactive: 0.919
60 | UCAAACUAGGUGCUGUUGUTT against Olfr584 | active: -1.11
61 | GGAAUCGAGAUCUUAAACATT against Itih1 | inactive: 0.279
62 | UUGGAACACCCUUUCUCAATT against Olfr1206 | inactive: -1.11
63 | GGCCAUUUGAAUCUUCUUUTT against Pigr | inactive: 0.954
64 | GCAGUCGCUUUGUUUUAUATT against Olfr1204 | inactive: -0.218
65 | GUCCAUUGCUUAGUGCGAUTT against Olfr961 | inactive: -1.46
66 | GGCACAAAAUGACCAAAAUTT against Npy2r | inactive: 0.103
67 | CGACUCUUACCAACCUUUUTT against Lhx2 | inactive: -0.507
68 | GGGCAGAAACGGAUAAUGGTT against Fgl1 | inactive: -1.66
69 | CGUUCUAUUCUUGACAACATT against 1700029I01Rik | inactive: -0.465
70 | GGAACAGCAGCAUCACAGUTT against BC022146 | inactive: -0.551
71 | GGAACAGAGCCUUUCUCAGTT against 5830442J12Rik | inactive: 2.9
72 | GGCCGACUUGAUCAAUAACTT against Hspca | inactive: 0.0146
73 | CGGUCUCUUCCUAAGUAAUTT against Cad | inactive: 0.836
74 | CCUGGUAACAGUCAUAAAUTT against Lhfpl2 | inactive: -0.196
75 | GGAAAUUACCUUGAUGAUGTT against Anxa4 | inactive: -0.924
76 | GCUCAACCAGUGUUAAAACTT against F2rl1 | inactive: 0.0882
77 | GGAGCAGCUGUCCAUCAAUTT against Sart3 | inactive: 1.33
78 | GCGGGACAUAUGAAUCUACTT against Il23a | inactive: 1.05

Row | Sequence | z-score
79 | GCAGUUCAUACUCUCUGCATT against Olfr919 | inactive: -0.784
80 | GGCUAUGGAGUUCACCACATT against Krtap5-5 | inactive: -1.05
81 | GGCAUAGCUGGUCUGAAGATT against Slc3a2 | inactive: -0.671
82 | GGCUGCAUAAAAGCAUUAATT against Aldh1a1 | inactive: 2.12
83 | CGCUUCAUGACUUCUGAAUTT against 4930579J09Rik | inactive: -0.375
84 | GCUACGUUACUAGGCAGUGTT against Mapk8ip2 | inactive: -0.297
85 | GGACUCAUAUCCUUACAUATT against AI854703 | inactive: -0.322
86 | GGAGAAACCAGGAUCUAUUTT against Rnf14 | inactive: 0.203
87 | CCAUGUGAUAUAAAGAGGATT against Apbb2 | inactive: -0.909
88 | CCACUCUGGCGAACCCAUUTT against 5730508B09Rik | inactive: 0.73
89 | GGCGAGAGAUGUUCGACAATT against MGC36320 | inactive: 1.61
90 | GGUUUGUUGUUGUUUUUGGTT against AI854408 | inactive: 0.388
91 | GGUGAAGACACUCAAGGCUTT against Junb | inactive: 0.153
92 | GGCUGACCACAUUAUAAGUTT against Ppox | inactive: 0.276
93 | GGCAAUCCUAACACAGAAUTT against 1810009H17Rik | inactive: 1.3
94 | GGUUCCUAAAGUAAAAACCTT against Gnpnat1 | inactive: 0.159
95 | CCAACAAAAGCCUAUUCGGTT against Hsh2d | inactive: -0.734
96 | GGAUUAAGUGCUCUUGGGUTT against Plscr4 | inactive: -0.12
97 | GGAAGAGCUAAUCGAUAUCTT against 2810442O16Rik | inactive: -0.145
98 | GGAGACAAACUCAAAACUGTT against Lyplal1 | inactive: 1.95
99 | GGAGAAUAGGAAUGUUUUUTT against Zfp112 | inactive: 0.724
100 | GCCAGAAUGUAUCCACGUGTT against Hspa12a | inactive: 0.451
101 | GGAGCACCUGAUUUAUCCCTT against 1700019F09Rik | inactive: 0.397
102 | CCAUCUUGAAGAUUCGUUCTT against Olfr486 | inactive: -0.115
103 | GGAUCCUCUCAUUAAGAAATT against Gabra1 | inactive: -1.59
